Results as given in PubChem BioAssay AID248 (DTP/NCI, 2004).
The list does not hold the whole screen: it gathers tests that were run many times, whatever their T/C, doses with no T/C, and many T/C values between a quarter and a half above the control. Further doses and runs are listed elsewhere. T/C gives the treated animals as a percentage of the vehicle group. Some entries give survivors of the animals treated and no T/C: the source files T/C as zero there, which appears to mark a toxic dose or a test without result, not a measured value. Some survivor counts are full or nearly so, which does not show that the dose was tolerated: survival well below the control is almost never listed, so the zero probably covers shortened survival too. Survivors were counted at the toxicity check, usually on the fifth day, unless a day is given; later deaths do not show. Schedules are NCI's codes, taken here to give the interval after Q, in days (D) or hours (H), and the number of doses after X. Some schedules carry Z or #; the key to these is not given. For survival time, the PubChem record calls one and a half times the control and up active, and a quarter to a half above the control has no call in these data; cut-offs in other NCI protocols can differ.

System: L1210 leukemia ip in BDF1 mice, survival T/C
Assay: NCI In Vivo Anticancer Drug Screen. Data for tumor model L1210 Leukemia (intraperitoneal) in B6D2F1 (BDF1) mice
Details: higher T/C = longer survival
[1] = T/C endpoint: mean survival time, dose: 150.0 mg/kg/injection, schedule: Q01DX001 (ip), vehicle: saline
[2] = T/C endpoint: mean survival time, dose: 300.0 mg/kg/injection, schedule: Q01DX001 (ip), vehicle: saline
[3] = T/C endpoint: mean survival time, dose: 400.0 mg/kg/injection, schedule: Q04DX002 (ip), vehicle: saline
[4] = T/C endpoint: mean survival time, dose: 100.0 mg/kg/injection, schedule: Q04DX003 (ip), vehicle: saline with Tween-80
[5] = T/C endpoint: mean survival time, dose: 200.0 mg/kg/injection, schedule: Q04DX003 (ip), vehicle: saline with Tween-80

Compound: CC(C)(COC(=O)c1ccc(N)cc1)NC1CCCCC1
- survivor count [1]: 3 of 6
- survivor count [2]: 0 of 6

Compound: CCOC(=O)C1=C(C)NC(=O)NN1C(=O)OCC
- survivor count (T/C endpoint: mean survival time, dose: 100.0 mg/kg/injection, schedule: Q01DX009 (ip), vehicle: saline): 1 of 3
- survivor count (T/C endpoint: mean survival time, dose: 200.0 mg/kg/injection, schedule: Q01DX009 (ip), vehicle: saline): 0 of 3

Compound: CCN(CC)C(=O)C1CCCCC1C (configuration not stated)
- survivor count [3]: 3 of 3

Compound: CC1=COC2CCCCC2O1 (configuration not stated) (tested in a mixture with another compound)
- survivor count (T/C endpoint: mean survival time, dose: 200.0 mg/kg/injection, schedule: Q01DX009 (ip), vehicle: acetone): 6 of 6
- survivor count (T/C endpoint: mean survival time, dose: 400.0 mg/kg/injection, schedule: Q04DX003 (ip), vehicle: acetone): 5 of 6

Compound: C[N+](C)(CCOC(=O)C1C2CC3OC(=O)C1C3C2)Cc1ccccc1 (configuration not stated)
- survivor count (T/C endpoint: mean survival time, dose: 200.0 mg/kg/injection, schedule: Q04DX003 (ip), vehicle: saline): 0 of 4
- survivor count (T/C endpoint: mean survival time, dose: 400.0 mg/kg/injection, schedule: Q04DX003 (ip), vehicle: saline): 0 of 4

Compound: O=S1(=O)CC(Br)C1
- survivor count (T/C endpoint: mean survival time, dose: 100.0 mg/kg/injection, schedule: Q01DX009 (ip), vehicle: Klucel (hydroxypropylcellulose) (HPC)): 2 of 3
- survivor count (T/C endpoint: mean survival time, dose: 100.0 mg/kg/injection, schedule: Q04DX002 (ip), vehicle: Klucel (hydroxypropylcellulose) (HPC)): 0 of 3
- survivor count (T/C endpoint: mean survival time, dose: 200.0 mg/kg/injection, schedule: Q04DX002 (ip), vehicle: Klucel (hydroxypropylcellulose) (HPC)): 0 of 3
- survivor count (T/C endpoint: mean survival time, dose: 400.0 mg/kg/injection, schedule: Q04DX002 (ip), vehicle: Klucel (hydroxypropylcellulose) (HPC)): 0 of 3

Compound: NC(N)=N/N=C(/c1ccccc1)c1ccc2ccccc2c1
- survivor count (T/C endpoint: mean survival time, dose: 240.0 mg/kg/injection, schedule: Q01DX Z (ip), vehicle: methylcellulose (MC)): 3 of 6
- survivor count (T/C endpoint: mean survival time, dose: 360.0 mg/kg/injection, schedule: Q01DX Z (ip), vehicle: methylcellulose (MC)): 1 of 6
- survivor count (T/C endpoint: mean survival time, dose: 480.0 mg/kg/injection, schedule: Q01DX Z (ip), vehicle: methylcellulose (MC)): 0 of 6
- survivor count (T/C endpoint: mean survival time, dose: 600.0 mg/kg/injection, schedule: Q01DX Z (oral), vehicle: methylcellulose (MC)): 3 of 6

Compound: CC(C)(C)NC(=O)Oc1cccnc1
- survivor count (T/C endpoint: mean survival time, dose: 400.0 mg/kg/injection, schedule: Q01DX009 (ip), vehicle: Klucel (hydroxypropylcellulose) (HPC)): 5 of 6

Compound: COc1cc([C@@H]2c3cc4c(cc3C[C@H]3COC(=O)[C@@H]32)OCO4)cc(OC)c1OC
- survivor count (T/C endpoint: mean survival time, dose: 30.0 mg/kg/injection, schedule: Q01DX009 (ip), vehicle: saline): 2 of 6
- survivor count (T/C endpoint: mean survival time, dose: 40.0 mg/kg/injection, schedule: Q01DX009 (ip), vehicle: saline): 2 of 6
- survivor count (T/C endpoint: mean survival time, dose: 50.0 mg/kg/injection, schedule: Q01DX009 (ip), vehicle: saline): 5 of 6
- T/C (T/C endpoint: mean survival time, dose: 67.0 mg/kg/injection, schedule: Q01DX001 (ip), vehicle: saline): 133 % of control
- survivor count (T/C endpoint: mean survival time, dose: 100.0 mg/kg/injection, schedule: Q01DX001 (ip), vehicle: saline with Tween-80): 1 of 6
- T/C (T/C endpoint: mean survival time, dose: 100.0 mg/kg/injection, schedule: Q01DX001 (ip), vehicle: saline): 139 % of control
- T/C [4]: 133 % of control
- survivor count [1]: 2 of 6
- survivor count (T/C endpoint: mean survival time, dose: 200.0 mg/kg/injection, schedule: Q01DX001 (ip), vehicle: other): 0 of 6
- survivor count (T/C endpoint: mean survival time, dose: 200.0 mg/kg/injection, schedule: Q01DX001 (ip), vehicle: saline with Tween-80): 2 of 6
- T/C (T/C endpoint: mean survival time, dose: 200.0 mg/kg/injection, schedule: Q01DX001 (ip), vehicle: saline): 127 % of control
- survivor count [5]: 0 of 6
- survivor count (T/C endpoint: mean survival time, dose: 400.0 mg/kg/injection, schedule: Q01DX001 (ip), vehicle: saline): 0 of 4
- survivor count (T/C endpoint: median survival time, dose: 20.0 mg/kg/injection, schedule: Q01DX009 (ip), vehicle: saline): 2 of 8

Compound: CC(C)(C)C1=CC(=O)C(N=[N+]=[N-])=CC1=O
- survivor count [3]: 2 of 3

Compound: OC1(c2ccccc2)c2ccccc2C(O)(c2ccccc2)c2c1ccc1ccccc21 (configuration not stated)
- survivor count (T/C endpoint: mean survival time, dose: 200.0 mg/kg/injection, schedule: Q01DX009 (ip), vehicle: saline with Tween-80): 6 of 6

Compound: O=P(Oc1ccccc1)(Oc1ccccc1)C(Nc1ccccc1)c1ccccc1 (configuration not stated)
- survivor count [4]: 6 of 6
- survivor count [5]: 6 of 6

Compound: COC(=O)C1CC(O)CC(C(=O)OC)O1 (configuration not stated)
- survivor count [2]: 2 of 6
